# In PMC9992707:
# Results are given in words; binding and its absence hold for the method and conditions named. In cells and extracts the contact can be indirect. Some entries that bind do so weakly or less than the wild type. Sequences can lack the tags named with a protein.
# B1: RIPK3, Q9QZL0 1-486 (protein)
# chain: MSSVKLWPTGASAVPLVSREELKKLEFVGKGGFGVVFRAHHRTWNHDVAVKIVNSKKISWEVKAMVNLRNENVLLLLGVTEDLQWDFVSGQALVTRFMENGSLAGLLQPECPRPWPLLCRLLQEVVLGMCYLHSLNPPLLHRDLKPSNILLDPELHAKLADFGLSTFQGGSQSGSGSGSGSRDSGGTLAYLDPELLFDVNLKASKASDVYSFGILVWAVLAGREAELVDKTSLIRETVCDRQSRPPLTELPPGSPETPGLEKLKELMIHCWGSQSENRPSFQDCEPKTNEVYNLVKDKVDAAVSEVKHYLSQHRSSGRNLSAREPSQRGTEMDCPRETMVSKMLDRLHLEEPSGPVPGKCPERQAQDTSVGPATPARTSSDPVAGTPQIPHTLPFRGTTPGPVFTETPGPHPQRNQGDGRHGTPWYPWTPPNPMTGPPALVFNNCSEVQIGNYNSLVAPPRTTASSSAKYDQAQFGRGRGWQPFHK
# Target: T1, RIP1-HA, Q60855
# T1 chain: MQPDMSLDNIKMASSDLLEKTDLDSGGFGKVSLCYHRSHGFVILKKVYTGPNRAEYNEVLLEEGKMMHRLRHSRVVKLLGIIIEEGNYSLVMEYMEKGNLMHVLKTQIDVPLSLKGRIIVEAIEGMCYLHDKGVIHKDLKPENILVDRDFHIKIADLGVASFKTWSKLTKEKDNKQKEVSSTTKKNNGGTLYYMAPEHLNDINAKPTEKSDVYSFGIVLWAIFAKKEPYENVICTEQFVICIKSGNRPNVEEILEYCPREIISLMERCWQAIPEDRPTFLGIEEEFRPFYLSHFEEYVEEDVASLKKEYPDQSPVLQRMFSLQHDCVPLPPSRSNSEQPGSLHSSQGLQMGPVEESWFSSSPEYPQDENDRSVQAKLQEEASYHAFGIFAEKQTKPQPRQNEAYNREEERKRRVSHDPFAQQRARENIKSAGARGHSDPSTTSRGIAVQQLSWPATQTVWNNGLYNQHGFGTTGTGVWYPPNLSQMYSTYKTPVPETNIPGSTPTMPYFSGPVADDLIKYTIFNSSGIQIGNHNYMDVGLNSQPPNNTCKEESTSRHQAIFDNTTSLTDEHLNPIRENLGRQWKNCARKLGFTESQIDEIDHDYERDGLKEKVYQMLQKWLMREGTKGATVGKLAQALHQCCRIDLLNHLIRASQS
# Experiment: co-IP; lysate of Setdb1 cKO mES cells overexpressing 3×Flag-HA-ZBP1 or RIP1-HA (Setdb1 knockout, 2iL condition); lysis buffer 50 mM Tris-HCl pH 7.4, 1% NP-40, 150 mM NaCl, 1 mM EDTA, 5% glycerol; anti-HA magnetic beads or anti-Flag M2 beads, 3 h at 4 °C; 5 washes
# Conditions: remark: other sources report otherwise
binder,measurement,value
B1,binding,binds
